Experiment [1] addresses vimentin (human (endogenous in HBMEC)) (UniProt P08670). As to the kind of experiment: co-IP.
For experiment [2], the target named is GFP-VH (vimentin head domain fused to GFP) (human) (UniProt P08670). Put plainly: co-IP.
Experiment [3] deals with Transcription factor p65 [NF-κB (p65)] (human (endogenous in HBMEC)) (UniProt Q04206). Put plainly: co-IP.
In a further experiment the target is His–vimentin (human) (UniProt P08670). As to the kind of experiment: pull-down; Ni-NTA resin with or without (control) purified native His–vimentin incubated with total cell lysates from HBMEC overnight at 4°C, washed five times; immunoblot for His tag, vimentin (V9) and IκBα; only the target purified.

Chains of the proteins cited; added tags and fusions are not shown. Lines headed by an entry give the natural chain unless they say otherwise; changes in a name come on top. A line that says so, or that is headed by a name, gives the form on record, which may keep a tag or linker. Residues count along the entry.
UniProt P08670: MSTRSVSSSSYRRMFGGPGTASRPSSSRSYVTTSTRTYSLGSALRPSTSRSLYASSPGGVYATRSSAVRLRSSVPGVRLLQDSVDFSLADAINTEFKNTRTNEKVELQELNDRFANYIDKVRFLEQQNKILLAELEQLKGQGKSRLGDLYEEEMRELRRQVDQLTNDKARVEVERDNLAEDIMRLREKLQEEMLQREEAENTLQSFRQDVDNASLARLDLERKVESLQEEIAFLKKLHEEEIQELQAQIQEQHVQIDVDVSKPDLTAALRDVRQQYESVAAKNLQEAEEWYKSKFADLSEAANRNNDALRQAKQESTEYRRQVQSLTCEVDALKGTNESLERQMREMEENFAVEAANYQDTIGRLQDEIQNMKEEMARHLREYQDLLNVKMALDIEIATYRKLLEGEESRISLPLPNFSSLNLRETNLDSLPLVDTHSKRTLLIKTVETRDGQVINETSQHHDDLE
GFP-VH (vimentin head domain fused to GFP): residues 1-95 of P08670
UniProt Q04206: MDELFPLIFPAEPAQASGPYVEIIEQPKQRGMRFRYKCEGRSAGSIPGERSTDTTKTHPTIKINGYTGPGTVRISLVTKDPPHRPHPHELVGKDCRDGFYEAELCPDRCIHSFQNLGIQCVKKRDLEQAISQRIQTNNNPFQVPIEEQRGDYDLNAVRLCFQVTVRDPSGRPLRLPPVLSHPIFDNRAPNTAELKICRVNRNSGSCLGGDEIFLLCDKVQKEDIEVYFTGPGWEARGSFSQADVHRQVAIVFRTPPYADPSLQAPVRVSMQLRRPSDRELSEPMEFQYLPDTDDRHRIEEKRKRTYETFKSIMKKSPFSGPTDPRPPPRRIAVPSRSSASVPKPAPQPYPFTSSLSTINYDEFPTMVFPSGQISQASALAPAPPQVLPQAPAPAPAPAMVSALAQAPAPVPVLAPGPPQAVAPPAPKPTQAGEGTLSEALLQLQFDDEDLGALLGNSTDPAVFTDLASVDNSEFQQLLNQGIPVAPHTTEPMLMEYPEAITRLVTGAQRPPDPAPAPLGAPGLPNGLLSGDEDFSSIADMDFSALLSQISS
UniProt P07437: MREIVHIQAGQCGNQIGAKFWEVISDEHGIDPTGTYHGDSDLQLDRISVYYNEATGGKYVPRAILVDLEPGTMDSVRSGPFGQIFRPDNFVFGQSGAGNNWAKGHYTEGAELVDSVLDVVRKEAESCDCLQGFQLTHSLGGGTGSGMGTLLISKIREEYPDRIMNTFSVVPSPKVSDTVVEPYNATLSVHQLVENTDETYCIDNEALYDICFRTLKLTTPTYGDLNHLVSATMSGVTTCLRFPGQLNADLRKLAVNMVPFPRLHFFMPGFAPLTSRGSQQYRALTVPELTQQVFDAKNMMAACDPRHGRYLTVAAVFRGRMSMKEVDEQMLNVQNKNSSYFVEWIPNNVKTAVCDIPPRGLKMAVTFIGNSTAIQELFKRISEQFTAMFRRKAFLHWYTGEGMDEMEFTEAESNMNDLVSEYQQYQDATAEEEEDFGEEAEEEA
UniProt P25963: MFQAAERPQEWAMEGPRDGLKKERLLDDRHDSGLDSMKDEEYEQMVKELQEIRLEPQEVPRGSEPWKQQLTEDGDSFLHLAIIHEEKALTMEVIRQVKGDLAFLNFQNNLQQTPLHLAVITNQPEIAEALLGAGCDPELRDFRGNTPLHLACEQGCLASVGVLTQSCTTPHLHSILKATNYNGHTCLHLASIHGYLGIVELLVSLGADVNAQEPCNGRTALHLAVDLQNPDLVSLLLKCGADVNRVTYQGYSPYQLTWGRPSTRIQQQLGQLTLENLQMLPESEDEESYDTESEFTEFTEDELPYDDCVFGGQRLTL

Results are given in words; binding and its absence hold for the method and conditions named. Binding seen in cells or lysates may run through a third protein. Some entries that bind do so weakly or less than the wild type.

On to “Transcription factor p65 [NF-κB (p65)] (from UniProt Q04206 1-551)”, for which the binding entry in experiment [1] and in experiment [2] was “binds” each time.

“Tubulin beta chain [β-tubulin] (from UniProt P07437 1-444)”: the binding entry in experiment [3], in experiment [1] and in experiment [2] was “binds” in each case.

In the case of vimentin (from UniProt P08670 1-466), the binding result in experiment [3] is listed as “binds”.

Regarding “NF-kappa-B inhibitor alpha [IκBα] (from UniProt P25963 1-317)”, the binding entry (with His–vimentin (human); in experiment [1]) was “binds” throughout.

Values taken from publication PMC3334993.
